Results deposited as PubChem BioAssay AID1159600 (NIAID, 2016).
This is one part, drawn at random, of 756 reagents tested. Of all reagents, 134 (18%) are marked active. 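Active includes both reduced and increased reporter signal, though most active siRNAs reduce it; R848 dose unknown.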 Reagents against one gene are numbered here. Reagent sequences are not shown. Not stated in the record: the amount of reagent.

Screen: 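Which TLR pathway genes support TNF promoter activation by R848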 (primary screen)
Cells: human THP-1 TNF reporter clone B5, made macrophage-like with PMA
Reagents: single siRNA against human genes
Timing: 4 h ligand stimulation, assayed 48 to 72 h after siRNA transfection
Challenge: R848 (TLR7/8 agonist) for 4 hours before lysis; dose not given
Detection: 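TNF promoter firefly to renilla luciferase ratio after 4 h R848, scaled per plate by median and MAD, robust z-score against negative controls, mean of replicates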
Scale: TNF reporter z-score: higher = stronger TNF promoter reporter signal after R848
Active means: 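Active where mean z-score is about 1.5 or more from zero in either direction; depositor grades use cut-offs of 1, 1.5, 2 and 2.5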
Calls: active = strong change in TNF reporter (up or down); inactive = little change

no.	Gene	siRNA no.	TNF reporter z-score	outcome
1	RIPK1 (receptor interacting serine/threonine kinase 1)	1	-0.972	inactive
2	RIPK1 (receptor interacting serine/threonine kinase 1)	2	0.0756	inactive
3	RIPK1 (receptor interacting serine/threonine kinase 1)	3	0.534	inactive
4	RIPK1 (receptor interacting serine/threonine kinase 1)	4	-0.979	inactive
5	RIPK1 (receptor interacting serine/threonine kinase 1)	5	-0.694	inactive
6	RIPK1 (receptor interacting serine/threonine kinase 1)	6	-1.13	inactive
7	MAPK10 (mitogen-activated protein kinase 10)	1	-1.93	active
8	MAPK10 (mitogen-activated protein kinase 10)	2	1.12	inactive
9	MAPK10 (mitogen-activated protein kinase 10)	3	-0.282	inactive
10	MAPK10 (mitogen-activated protein kinase 10)	4	-0.455	inactive
11	MAPK10 (mitogen-activated protein kinase 10)	5	0.603	inactive
12	MAPK10 (mitogen-activated protein kinase 10)	6	-0.39	inactive
13	ELF4 (E74 like ETS transcription factor 4)	1	-2.84	active
14	ELF4 (E74 like ETS transcription factor 4)	2	-2.52	active
15	ELF4 (E74 like ETS transcription factor 4)	3	-1.33	inactive
16	ELF4 (E74 like ETS transcription factor 4)	4	-0.613	inactive
17	ELF4 (E74 like ETS transcription factor 4)	5	-1.33	inactive
18	ELF4 (E74 like ETS transcription factor 4)	6	-0.927	inactive
19	PIK3R1 (phosphoinositide-3-kinase regulatory subunit 1)	1	1.39	inactive
20	PIK3R1 (phosphoinositide-3-kinase regulatory subunit 1)	2	-0.51	inactive
21	PIK3R1 (phosphoinositide-3-kinase regulatory subunit 1)	3	0.298	inactive
22	PIK3R1 (phosphoinositide-3-kinase regulatory subunit 1)	4	-0.66	inactive
23	PIK3R1 (phosphoinositide-3-kinase regulatory subunit 1)	5	-2.36	active
24	PIK3R1 (phosphoinositide-3-kinase regulatory subunit 1)	6	1.18	inactive

Next part; the last 2 above are carried over.
no.	Gene	siRNA no.	TNF reporter z-score	outcome
23	PIK3R1 (phosphoinositide-3-kinase regulatory subunit 1)	5	-2.36	active
24	PIK3R1 (phosphoinositide-3-kinase regulatory subunit 1)	6	1.18	inactive
25	IL12A (interleukin 12A)	1	-0.0847	inactive
26	IL12A (interleukin 12A)	2	-0.17	inactive
27	IL12A (interleukin 12A)	3	-2.98	active
28	IL12A (interleukin 12A)	4	-0.477	inactive
29	IL12A (interleukin 12A)	5	-1.06	inactive
30	IL12A (interleukin 12A)	6	-0.51	inactive
31	MAP3K1 (mitogen-activated protein kinase kinase kinase 1)	1	-1.39	inactive
32	MAP3K1 (mitogen-activated protein kinase kinase kinase 1)	2	-0.404	inactive
33	MAP3K1 (mitogen-activated protein kinase kinase kinase 1)	3	-0.924	inactive
34	MAP3K1 (mitogen-activated protein kinase kinase kinase 1)	4	-1.72	active
35	MAP3K1 (mitogen-activated protein kinase kinase kinase 1)	5	-0.942	inactive
36	MAP3K1 (mitogen-activated protein kinase kinase kinase 1)	6	-0.0248	inactive
37	IRF9 (interferon regulatory factor 9)	1	-1.09	inactive
38	IRF9 (interferon regulatory factor 9)	2	-1.12	inactive
39	IRF9 (interferon regulatory factor 9)	3	0.0217	inactive
40	IRF9 (interferon regulatory factor 9)	4	-2.02	active
41	IRF9 (interferon regulatory factor 9)	5	-1.36	inactive
42	IRF9 (interferon regulatory factor 9)	6	-1.33	inactive
43	TLR3 (toll like receptor 3)	1	0.891	inactive
44	TLR3 (toll like receptor 3)	2	-0.203	inactive
45	TLR3 (toll like receptor 3)	3	-0.302	inactive
46	TLR3 (toll like receptor 3)	4	-0.853	inactive
47	TLR3 (toll like receptor 3)	5	0.619	inactive
48	TLR3 (toll like receptor 3)	6	0.173	inactive
